Laboratory results reported in paper PMC12592727.
Changes are numbered by the printed parent chain. These are yes or no findings as the source states them, for the method shown. In cells and extracts the contact can be indirect. Some binding calls cover weakened binding; strength is not graded here. Where a sequence is shown, tags or fusion partners need not be part of it.

By UniProt entry, the sequences of proteins in these tests, tags left out.
UniProt P08621: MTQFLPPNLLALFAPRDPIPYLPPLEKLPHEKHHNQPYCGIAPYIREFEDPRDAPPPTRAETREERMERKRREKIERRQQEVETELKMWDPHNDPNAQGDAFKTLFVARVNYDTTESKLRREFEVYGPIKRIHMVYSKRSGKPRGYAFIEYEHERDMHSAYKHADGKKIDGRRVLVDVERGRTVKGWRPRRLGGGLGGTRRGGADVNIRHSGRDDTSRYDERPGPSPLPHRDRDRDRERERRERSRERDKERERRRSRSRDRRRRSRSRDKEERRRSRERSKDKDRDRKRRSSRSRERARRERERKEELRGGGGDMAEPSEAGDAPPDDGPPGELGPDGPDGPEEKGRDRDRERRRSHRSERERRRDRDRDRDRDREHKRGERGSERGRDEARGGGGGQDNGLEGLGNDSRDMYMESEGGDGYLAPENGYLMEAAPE

Assays:
[1] = target: T1, FLAG-tagged CMTR2 K117N mutant (human) (UniProt Q8IYT2); assay: co-IP; anti-FLAG immunoprecipitation from lysates of doxycycline-induced Flp-in T-REx 293 cells (20 mM HEPES pH 7.5, 300 mM NaCl, 0.5% NP-40, 4 °C); immunoblot for SNRNP70
T1 sequence: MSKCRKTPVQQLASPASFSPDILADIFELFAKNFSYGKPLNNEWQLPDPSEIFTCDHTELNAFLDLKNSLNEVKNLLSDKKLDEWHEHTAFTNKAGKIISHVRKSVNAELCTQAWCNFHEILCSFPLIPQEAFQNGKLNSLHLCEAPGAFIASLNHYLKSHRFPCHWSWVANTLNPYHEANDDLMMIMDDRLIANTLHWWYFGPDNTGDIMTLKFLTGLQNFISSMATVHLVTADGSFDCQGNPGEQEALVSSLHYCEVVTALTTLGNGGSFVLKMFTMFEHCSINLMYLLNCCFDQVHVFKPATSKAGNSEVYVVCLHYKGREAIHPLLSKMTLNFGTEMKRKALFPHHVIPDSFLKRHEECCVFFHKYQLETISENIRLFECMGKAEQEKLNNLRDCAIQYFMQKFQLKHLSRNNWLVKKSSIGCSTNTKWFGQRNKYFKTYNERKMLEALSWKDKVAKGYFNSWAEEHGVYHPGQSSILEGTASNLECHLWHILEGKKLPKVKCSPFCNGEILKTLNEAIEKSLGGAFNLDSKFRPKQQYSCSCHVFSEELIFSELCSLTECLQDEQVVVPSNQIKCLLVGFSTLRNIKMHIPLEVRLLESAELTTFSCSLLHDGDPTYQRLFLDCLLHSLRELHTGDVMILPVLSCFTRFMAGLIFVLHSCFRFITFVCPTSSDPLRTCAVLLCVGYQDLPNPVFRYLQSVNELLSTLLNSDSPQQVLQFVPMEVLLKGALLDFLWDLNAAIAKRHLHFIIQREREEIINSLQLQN

[2] = target: T2, FLAG-tagged WT CMTR2 (Cap-specific mRNA (nucleoside-2'-O-)-methyltransferase 2) (human) (UniProt Q8IYT2); assay: as above
T2 sequence: T1 sequence with N117K

binding [1]: no binding
binding [2]: binds
Substance: SNRNP70 (U1 snRNP component) (from UniProt P08621 1-437)
